One substance from PMC7257233 can be followed below.

These are yes or no findings as the source states them, for the method shown. Binding seen in cells or lysates may run through a third protein. Binding can be weak; no strength is given. Tags and fused reporters may be left off the sequences shown.

For this experiment, the target named is T1, His-tagged GMEB1 protein (GMEB1-His) (UniProt Q9Y692).
T1 sequence: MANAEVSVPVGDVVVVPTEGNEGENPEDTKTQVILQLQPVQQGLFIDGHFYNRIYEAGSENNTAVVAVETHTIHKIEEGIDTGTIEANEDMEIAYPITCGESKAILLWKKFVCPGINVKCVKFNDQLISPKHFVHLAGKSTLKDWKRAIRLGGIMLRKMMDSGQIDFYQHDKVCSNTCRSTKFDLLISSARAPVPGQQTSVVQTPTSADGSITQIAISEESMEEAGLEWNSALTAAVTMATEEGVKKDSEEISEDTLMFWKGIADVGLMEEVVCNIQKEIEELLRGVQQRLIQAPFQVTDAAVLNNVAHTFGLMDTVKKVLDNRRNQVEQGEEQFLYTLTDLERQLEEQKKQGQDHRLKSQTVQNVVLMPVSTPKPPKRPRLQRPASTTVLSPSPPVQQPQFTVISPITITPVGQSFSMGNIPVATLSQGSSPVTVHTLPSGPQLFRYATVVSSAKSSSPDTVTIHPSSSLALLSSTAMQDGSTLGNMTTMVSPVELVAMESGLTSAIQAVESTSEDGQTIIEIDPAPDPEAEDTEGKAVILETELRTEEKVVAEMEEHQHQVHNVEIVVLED
The experiment can be described thus: co-IP; HEK293FT cells co-transfected with GMEB1-His and FLAG-tagged TRAF3 forms; lysed in 0.5% NP40 buffer (25 mM Tris-HCl pH 7.4, 150 mM NaCl, 5 mM EDTA); GMEB1-His precipitated with Ni-NTA beads; blot with anti-FLAG and anti-His.

In the case of “truncated TRAF3 (TRAF3ΔC-flag), lacking the TRAF-C domain (human) (domain or fragment)”, the binding result is “binds”.
